Source: the supplement of paper PMC10849652
This is one part of the list.

Protein sequences, listed by entry. Tags and fused reporters are not part of them. Lines headed by an entry give the natural chain unless they say otherwise; changes in a name come on top.
UniProt Q92585: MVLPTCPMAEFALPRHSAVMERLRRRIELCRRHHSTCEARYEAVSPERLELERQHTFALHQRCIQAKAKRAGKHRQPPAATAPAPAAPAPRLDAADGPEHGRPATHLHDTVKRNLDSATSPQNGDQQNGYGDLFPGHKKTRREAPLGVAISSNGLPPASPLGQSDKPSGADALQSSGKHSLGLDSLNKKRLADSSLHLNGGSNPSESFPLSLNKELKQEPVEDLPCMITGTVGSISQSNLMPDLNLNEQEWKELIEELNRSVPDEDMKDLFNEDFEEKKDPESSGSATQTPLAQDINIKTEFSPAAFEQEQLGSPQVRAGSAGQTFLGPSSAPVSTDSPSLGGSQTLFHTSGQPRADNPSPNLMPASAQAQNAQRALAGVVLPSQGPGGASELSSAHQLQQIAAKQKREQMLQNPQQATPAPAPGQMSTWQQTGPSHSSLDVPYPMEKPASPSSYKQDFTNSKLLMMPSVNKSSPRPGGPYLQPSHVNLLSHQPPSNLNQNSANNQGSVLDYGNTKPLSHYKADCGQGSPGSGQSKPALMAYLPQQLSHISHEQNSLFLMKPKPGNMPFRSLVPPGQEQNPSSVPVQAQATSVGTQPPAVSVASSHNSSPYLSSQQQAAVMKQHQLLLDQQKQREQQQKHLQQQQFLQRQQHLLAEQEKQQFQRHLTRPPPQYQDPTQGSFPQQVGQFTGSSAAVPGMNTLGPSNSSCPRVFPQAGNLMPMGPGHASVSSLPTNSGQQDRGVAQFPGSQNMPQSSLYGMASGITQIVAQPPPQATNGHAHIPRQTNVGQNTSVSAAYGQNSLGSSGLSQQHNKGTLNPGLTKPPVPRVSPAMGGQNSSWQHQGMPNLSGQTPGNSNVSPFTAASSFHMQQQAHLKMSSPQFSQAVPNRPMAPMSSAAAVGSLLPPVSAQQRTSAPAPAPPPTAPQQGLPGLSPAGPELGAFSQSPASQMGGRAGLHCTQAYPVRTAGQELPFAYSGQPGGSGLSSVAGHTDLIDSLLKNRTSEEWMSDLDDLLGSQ
UniProt P43356, whole entry, looked up: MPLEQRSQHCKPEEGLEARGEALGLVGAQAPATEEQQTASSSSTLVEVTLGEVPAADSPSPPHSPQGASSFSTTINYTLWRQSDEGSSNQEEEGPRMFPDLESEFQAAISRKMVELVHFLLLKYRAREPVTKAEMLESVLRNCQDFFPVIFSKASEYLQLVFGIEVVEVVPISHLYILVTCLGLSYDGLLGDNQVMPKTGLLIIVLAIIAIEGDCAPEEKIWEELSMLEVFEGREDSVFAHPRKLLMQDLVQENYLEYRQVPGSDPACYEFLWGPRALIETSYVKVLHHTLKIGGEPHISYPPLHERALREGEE
UniProt Q9Y2U5: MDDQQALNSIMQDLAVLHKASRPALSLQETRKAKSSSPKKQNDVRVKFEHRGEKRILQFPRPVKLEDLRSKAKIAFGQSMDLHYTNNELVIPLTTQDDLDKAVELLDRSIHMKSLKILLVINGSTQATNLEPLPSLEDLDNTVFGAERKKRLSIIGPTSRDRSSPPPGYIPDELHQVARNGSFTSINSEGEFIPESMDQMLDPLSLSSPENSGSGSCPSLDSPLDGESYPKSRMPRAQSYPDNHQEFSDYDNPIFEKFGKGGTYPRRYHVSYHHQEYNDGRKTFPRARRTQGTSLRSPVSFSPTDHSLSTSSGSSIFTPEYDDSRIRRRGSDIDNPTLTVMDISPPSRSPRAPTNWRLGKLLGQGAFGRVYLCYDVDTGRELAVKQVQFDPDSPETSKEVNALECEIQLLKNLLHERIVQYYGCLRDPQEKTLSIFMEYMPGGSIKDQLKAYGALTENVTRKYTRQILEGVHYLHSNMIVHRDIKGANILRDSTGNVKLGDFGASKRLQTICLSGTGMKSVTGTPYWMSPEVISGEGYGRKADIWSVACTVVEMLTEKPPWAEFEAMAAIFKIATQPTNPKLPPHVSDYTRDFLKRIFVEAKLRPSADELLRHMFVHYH
UniProt P43365, whole entry, looked up: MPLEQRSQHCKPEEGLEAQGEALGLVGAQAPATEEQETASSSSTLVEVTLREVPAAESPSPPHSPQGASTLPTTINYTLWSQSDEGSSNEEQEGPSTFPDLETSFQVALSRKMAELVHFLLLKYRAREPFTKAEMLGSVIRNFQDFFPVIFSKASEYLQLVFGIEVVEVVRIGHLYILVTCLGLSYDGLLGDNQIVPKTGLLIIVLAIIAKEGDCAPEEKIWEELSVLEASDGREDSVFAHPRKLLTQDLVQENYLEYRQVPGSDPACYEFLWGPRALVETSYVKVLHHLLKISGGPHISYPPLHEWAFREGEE
UniProt Q9BSK0: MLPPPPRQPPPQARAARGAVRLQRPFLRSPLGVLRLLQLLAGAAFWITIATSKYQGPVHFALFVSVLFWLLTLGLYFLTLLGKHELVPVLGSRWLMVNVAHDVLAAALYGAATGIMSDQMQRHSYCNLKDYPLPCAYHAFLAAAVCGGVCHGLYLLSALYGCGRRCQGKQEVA
UniProt Q8IVH8: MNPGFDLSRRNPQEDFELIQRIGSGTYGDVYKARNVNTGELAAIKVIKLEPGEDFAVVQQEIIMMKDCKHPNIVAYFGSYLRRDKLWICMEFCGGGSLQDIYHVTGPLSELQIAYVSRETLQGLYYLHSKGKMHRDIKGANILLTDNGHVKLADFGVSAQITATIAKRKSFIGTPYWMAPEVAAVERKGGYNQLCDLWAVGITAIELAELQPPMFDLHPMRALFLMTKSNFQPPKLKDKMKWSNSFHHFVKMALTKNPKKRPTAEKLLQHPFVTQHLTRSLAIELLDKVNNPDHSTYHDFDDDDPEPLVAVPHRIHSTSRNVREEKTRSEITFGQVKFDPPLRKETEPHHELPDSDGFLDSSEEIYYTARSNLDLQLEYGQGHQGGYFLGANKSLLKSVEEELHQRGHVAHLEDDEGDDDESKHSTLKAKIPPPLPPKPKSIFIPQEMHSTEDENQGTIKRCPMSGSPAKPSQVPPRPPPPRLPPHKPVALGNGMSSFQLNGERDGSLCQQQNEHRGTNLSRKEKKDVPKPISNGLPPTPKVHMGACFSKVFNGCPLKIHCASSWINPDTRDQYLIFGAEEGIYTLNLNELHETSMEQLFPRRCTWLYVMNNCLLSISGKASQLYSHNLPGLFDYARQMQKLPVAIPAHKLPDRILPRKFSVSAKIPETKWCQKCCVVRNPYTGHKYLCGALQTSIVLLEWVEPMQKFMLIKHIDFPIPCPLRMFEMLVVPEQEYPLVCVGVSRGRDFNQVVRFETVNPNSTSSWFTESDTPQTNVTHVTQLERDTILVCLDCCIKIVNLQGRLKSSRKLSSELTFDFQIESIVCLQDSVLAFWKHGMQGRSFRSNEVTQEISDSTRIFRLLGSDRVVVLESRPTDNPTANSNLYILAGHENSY
UniProt Q96JG8: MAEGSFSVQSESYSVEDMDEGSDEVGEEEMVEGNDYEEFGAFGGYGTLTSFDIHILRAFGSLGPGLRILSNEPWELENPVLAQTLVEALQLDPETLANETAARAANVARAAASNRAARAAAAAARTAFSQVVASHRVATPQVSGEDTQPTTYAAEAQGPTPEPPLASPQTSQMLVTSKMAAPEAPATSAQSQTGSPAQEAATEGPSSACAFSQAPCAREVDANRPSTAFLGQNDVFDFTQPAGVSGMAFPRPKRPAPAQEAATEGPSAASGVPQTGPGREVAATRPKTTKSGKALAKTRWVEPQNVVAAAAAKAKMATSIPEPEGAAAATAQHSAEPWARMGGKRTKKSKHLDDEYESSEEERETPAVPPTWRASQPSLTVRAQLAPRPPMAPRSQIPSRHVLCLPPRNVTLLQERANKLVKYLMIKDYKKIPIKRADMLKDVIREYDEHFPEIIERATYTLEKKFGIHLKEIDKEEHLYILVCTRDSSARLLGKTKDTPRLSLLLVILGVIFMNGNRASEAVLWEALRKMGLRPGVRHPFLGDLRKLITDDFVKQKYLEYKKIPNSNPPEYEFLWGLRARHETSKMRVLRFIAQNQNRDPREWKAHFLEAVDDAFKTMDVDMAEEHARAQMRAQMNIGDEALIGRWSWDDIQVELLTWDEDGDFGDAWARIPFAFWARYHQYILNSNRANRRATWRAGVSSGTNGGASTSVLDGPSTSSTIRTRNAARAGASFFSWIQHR
UniProt P07948: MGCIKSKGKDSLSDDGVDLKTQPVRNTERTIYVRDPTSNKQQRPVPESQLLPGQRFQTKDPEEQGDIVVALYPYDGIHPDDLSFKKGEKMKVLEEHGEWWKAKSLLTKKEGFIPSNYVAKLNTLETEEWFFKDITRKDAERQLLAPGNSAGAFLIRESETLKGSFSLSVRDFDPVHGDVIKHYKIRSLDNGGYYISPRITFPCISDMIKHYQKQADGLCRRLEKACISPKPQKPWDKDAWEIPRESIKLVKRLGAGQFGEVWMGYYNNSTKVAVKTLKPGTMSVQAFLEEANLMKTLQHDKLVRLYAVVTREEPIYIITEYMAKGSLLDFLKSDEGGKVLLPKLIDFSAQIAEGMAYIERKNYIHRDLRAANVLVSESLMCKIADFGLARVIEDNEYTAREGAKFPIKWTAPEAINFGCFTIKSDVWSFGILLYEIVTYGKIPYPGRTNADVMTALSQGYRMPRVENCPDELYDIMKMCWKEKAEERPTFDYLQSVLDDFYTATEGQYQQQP
UniProt Q86UD3: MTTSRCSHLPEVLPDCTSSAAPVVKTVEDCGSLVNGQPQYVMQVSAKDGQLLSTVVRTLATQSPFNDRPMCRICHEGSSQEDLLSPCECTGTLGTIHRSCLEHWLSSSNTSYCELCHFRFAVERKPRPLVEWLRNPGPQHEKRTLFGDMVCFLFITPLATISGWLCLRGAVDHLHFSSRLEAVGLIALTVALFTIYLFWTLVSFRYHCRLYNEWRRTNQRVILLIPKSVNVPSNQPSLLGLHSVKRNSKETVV
UniProt Q8WV07: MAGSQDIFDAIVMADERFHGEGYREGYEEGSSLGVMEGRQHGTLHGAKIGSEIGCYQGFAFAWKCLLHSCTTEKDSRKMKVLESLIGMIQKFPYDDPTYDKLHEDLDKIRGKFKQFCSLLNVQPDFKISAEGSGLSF
UniProt P21397, whole entry, looked up: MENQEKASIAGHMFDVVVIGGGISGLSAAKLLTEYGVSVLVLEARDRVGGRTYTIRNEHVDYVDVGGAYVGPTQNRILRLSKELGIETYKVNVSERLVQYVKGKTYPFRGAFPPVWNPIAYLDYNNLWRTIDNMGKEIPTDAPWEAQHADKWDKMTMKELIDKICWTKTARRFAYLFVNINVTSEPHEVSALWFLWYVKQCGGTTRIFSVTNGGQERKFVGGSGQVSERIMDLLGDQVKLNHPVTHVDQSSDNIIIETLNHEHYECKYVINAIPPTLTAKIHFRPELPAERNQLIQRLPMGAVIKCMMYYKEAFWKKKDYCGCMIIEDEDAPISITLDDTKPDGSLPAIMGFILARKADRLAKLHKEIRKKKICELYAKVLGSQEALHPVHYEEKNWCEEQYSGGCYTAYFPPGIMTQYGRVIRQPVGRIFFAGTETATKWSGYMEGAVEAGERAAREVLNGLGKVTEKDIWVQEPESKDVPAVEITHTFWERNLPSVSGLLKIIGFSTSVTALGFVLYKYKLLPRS
UniProt Q8TD08: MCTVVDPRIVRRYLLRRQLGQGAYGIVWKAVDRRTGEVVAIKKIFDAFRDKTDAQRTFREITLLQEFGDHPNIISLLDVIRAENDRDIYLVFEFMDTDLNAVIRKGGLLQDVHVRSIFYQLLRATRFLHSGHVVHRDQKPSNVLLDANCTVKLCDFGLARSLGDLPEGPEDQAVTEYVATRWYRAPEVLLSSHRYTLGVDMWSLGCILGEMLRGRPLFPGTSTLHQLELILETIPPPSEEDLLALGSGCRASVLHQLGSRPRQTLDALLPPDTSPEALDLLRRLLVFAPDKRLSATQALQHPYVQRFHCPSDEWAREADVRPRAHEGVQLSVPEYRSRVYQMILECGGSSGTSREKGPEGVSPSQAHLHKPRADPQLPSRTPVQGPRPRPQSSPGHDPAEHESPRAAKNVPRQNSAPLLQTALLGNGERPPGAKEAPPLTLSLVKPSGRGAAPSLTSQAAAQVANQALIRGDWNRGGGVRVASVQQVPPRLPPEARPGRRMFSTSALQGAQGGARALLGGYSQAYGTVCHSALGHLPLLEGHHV
UniProt Q9BPZ7, whole entry, looked up: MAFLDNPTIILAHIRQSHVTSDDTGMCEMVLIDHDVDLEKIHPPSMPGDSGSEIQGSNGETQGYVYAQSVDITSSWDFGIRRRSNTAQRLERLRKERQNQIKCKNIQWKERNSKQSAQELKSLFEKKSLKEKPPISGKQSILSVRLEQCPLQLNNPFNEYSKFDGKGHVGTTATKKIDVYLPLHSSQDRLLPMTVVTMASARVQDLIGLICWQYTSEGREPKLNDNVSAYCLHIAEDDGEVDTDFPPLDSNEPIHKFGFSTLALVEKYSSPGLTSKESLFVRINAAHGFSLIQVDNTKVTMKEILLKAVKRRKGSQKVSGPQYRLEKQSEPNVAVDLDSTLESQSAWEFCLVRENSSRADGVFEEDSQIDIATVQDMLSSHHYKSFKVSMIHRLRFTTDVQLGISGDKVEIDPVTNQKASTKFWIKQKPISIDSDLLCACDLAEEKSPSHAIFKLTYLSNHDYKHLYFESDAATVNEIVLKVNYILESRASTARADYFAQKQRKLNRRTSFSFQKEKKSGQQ

Assays:
Experiment in all cases: log2 fold change, soluble protein after heating vs DMSO (PISA); higher = thermal stabilisation; K562 lysate, 10 uM; active = over 0.2 and 3.5 SD of the protein, either way, in both replicates (recomputed)
[1] = compound: CS(=O)(=O)N1CCN(Cc2cc3nc(-c4cccc5[nH]ncc45)nc(N4CCOCC4)c3s2)CC1 [pictilisib]
Method in brief: (§1)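 Quantification was by TMTpro 16plex LC-MS/MS with equalised channel sums, applied to the supernatant after 21,000xg for 90 min. Samples were crude K562 extract at 1 mg/mL protein in PBS pH 7.4 with 1 mM MgCl2, treated with 10 μM compound for 30 min, heated for 3 min across 48°C-58°C, pooled and brought to 0.5% NP-40 at 4°C. Values are log-two fold changes in thermal stability relative to solvent controls, from duplicates.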

[2] = compound: C[C@@H](Oc1cc(-c2cnn(C3CCNCC3)c2)cnc1N)c1c(Cl)ccc(F)c1Cl [crizotinib]
Method in brief: as §1

[3] = compound: C[C@H](C1=CC=C(C=C1)C(=O)NC2=C3C=CNC3=NC=C2)N
Method in brief: as §1

[4] = compound: C[C@H](Nc1ncnc2nc[nH]c12)c1cc2cccc(Cl)c2c(=O)n1-c1ccccc1 [duvelisib]
Method in brief: as §1

[5] = compound: Cc1cc(Nc2cc(CN3CCOCC3)c3nc(C)c(Cc4ccc(Cl)cc4F)n3n2)n[nH]1 [gandotinib]
Method in brief: as §1

[6] = compound: Cc1cc(Nc2cc(N3CCN(C)CC3)nc(Sc3ccc(NC(=O)C4CC4)cc3)n2)n[nH]1 [tozasertib]
Method in brief: as §1

[7] = compound: Cc1ccc(-n2nc(C(C)(C)C)cc2NC(=O)Nc2ccc(OCCN3CCOCC3)c3ccccc23)cc1 [doramapimod]
Method in brief: as §1

[8] = compound: Cc1ccc(NC(=O)c2ccc(CN3CC[C@H](N(C)C)C3)c(C(F)(F)F)c2)cc1Nc1nccc(-c2cncnc2)n1 [bafetinib]
Method in brief: as §1

[9] = compound: Cc1cccc(CC(=O)N2CCc3c2ccc(-c2cn(C)c4ncnc(N)c24)c3F)n1
Method in brief: as §1

[10] = compound: Cc1cn(-c2cc(NC(=O)c3ccc(C)c(Nc4nccc(-c5cccnc5)n4)c3)cc(C(F)(F)F)c2)cn1 [nilotinib]
Method in brief: as §1

[11] = compound: Cc1nc(Nc2n[nH]c3c2CN(C(=O)N[C@H](CN(C)C)c2ccccc2)C3(C)C)c2sccc2n1
Method in brief: as §1

[12] = compound: Cc1nc(Nc2ncc(C(=O)Nc3c(C)cccc3Cl)s2)cc(N2CCN(CCO)CC2)n1 [dasatinib]
Method in brief: as §1

[13] = compound: Cc1ncc(-c2ccnc(Nc3ccc(S(C)(=O)=O)cc3)n2)n1C(C)C
Method in brief: as §1

[14] = compound: Cn1cc(-c2ccc3c(c2)CCN3C(=O)Cc2cccc(C(F)(F)F)c2)c2c(N)ncnc21
Method in brief: as §1

[15] = compound: Cn1cc(CNCC2CCN(c3ncc(C(=O)NO)cn3)CC2)c2ccccc21 [quisinostat]
Method in brief: as §1

[16] = compound: Cn1cncc1[C@@](N)(c1ccc(Cl)cc1)c1ccc2c(c1)c(-c1cccc(Cl)c1)cc(=O)n2C [tipifarnib]
Method in brief: as §1

[17] = compound: NC(=O)Nc1cc(-c2cccc(F)c2)sc1C(=O)N[C@H]1CCCNC1
Method in brief: as §1

[18] = compound: NC1(c2ccc(-c3nc4ccn5c(=O)[nH]nc5c4cc3-c3ccccc3)cc2)CCC1
Method in brief: as §1

[19] = compound: CS(=O)(=O)CCNCc1ccc(-c2ccc3ncnc(Nc4ccc(OCc5cccc(F)c5)c(Cl)c4)c3c2)o1 [lapatinib]
Method in brief: as §1

[20] = compound: NC(=O)c1cnc(N[C@@H]2CCCC[C@@H]2N)nc1Nc1cccc(-n2nccn2)c1
Method in brief: as §1

Measured: log2 fold change

MAML1 (UniProt Q92585)
inactive: [1] 0.161 | [2] 0.088 | [3] -0.005 | [4] 0.123 | [5] -0.031 | [6] -0.017 | [7] -0.138 | [8] -0.05 | [9] 0.023 | [10] -0.094 | [11] 0.015 | [12] 0.046 | [13] -0.109 | [14] 0 | [15] 0.015 | [16] -0.028 | [17] 0.031 | [18] 0.083

LYRM1 (UniProt O43325)
inactive: [2] -0.281 | [3] -0.3 | [4] -0.036 | [5] -0.104 | [7] -0.02 | [9] -0.261 | [12] -0.039 | [14] -0.061 | [15] 0.198 | [17] 0.139 | [18] 0.083

MAGI1 (UniProt H7C4S7)
inactive: [4] 0.041 | [12] -0.182 | [14] 0.095

MAP3K6 (UniProt O95382)
inactive: [6] -0.061 | [10] 0.122 | [11] -0.023 | [13] 0.006 | [16] -0.011

MAP3K3 isoform 2 (UniProt Q99759)
inactive: [4] 0.001 | [6] 0.028 | [7] -0.077 | [10] -0.122 | [11] -0.002 | [12] 0.189 | [13] -0.016 | [14] -0.064 | [15] 0.057 | [16] -0.003 | [17] 0.092 | [18] -0.123

MAGEF1 (UniProt Q9HAY2)
inactive: [19] -0.149 | [4] 0.039 | [12] 0.11 | [14] -0.041 | [20] 0.034 | [18] -0.483

MAPK3 (UniProt H0YEX6)
inactive: [10] -0.522 | [11] 0.646 | [13] 0.12 | [16] 0.097

MAGEA2 (UniProt P43356)
inactive: [4] 0.065 | [6] 0.134 | [12] 0.056 | [14] 0.164

MAP3K2 (UniProt Q9Y2U5)
inactive: [1] -0.018 | [2] -0.132 | [3] -0.099 | [4] 0.115 | [5] 0.146 | [6] -0.138 | [7] -0.033 | [8] -0.13 | [9] 0.214 | [12] 0.218 | [14] -0.079 | [15] -0.21 | [17] 0.124 | [18] 0.018

MAGEA12 (UniProt P43365)
inactive: [2] -0.078 | [3] 0.046 | [5] -0.007 | [6] 0.036 | [7] 0.046 | [9] 0.048 | [15] 0.099 | [17] 0.066

MARVELD1 (UniProt Q9BSK0)
inactive: [1] 0.025 | [3] -0.052 | [4] 0.072 | [5] 0.273 | [8] -0.138 | [9] 0.231 | [12] 0.165 | [14] -0.138 | [18] 0.066

MACF1, A0A0A6YYJ5
inactive: [1] 0.013 | [2] -0.019 | [3] -0.042 | [4] 0.014 | [5] -0.01 | [6] -0.108 | [7] -0.022 | [8] -0.051 | [9] 0.068 | [10] -0.005 | [11] -0.065 | [12] 0.018 | [13] -0.232 | [14] 0.004 | [15] -0.11 | [16] 0.104 | [17] 0.01 | [18] -0.008

MAP4K3 (UniProt Q8IVH8)
inactive: [1] -0.114 | [4] 0.183 | [7] -0.041 | [8] -0.028 | [12] 0.401 | [14] -0.774 | [15] 0.002 | [17] 0.602

LY6D (UniProt Q14210)
inactive: [4] -0.51 | [12] 0.482 | [14] -0.359

MAGED4 isoform 4 (UniProt Q96JG8)
inactive: [3] -0.201 | [5] 0.313 | [9] 0.376

LYN isoform 2 (UniProt P07948)
active: [5] 0.891
inactive: [2] 0.049 | [3] 0.026 | [4] -0.357 | [6] 0.126 | [7] -0.076 | [9] -0.006 | [10] 0.125 | [11] 0.143 | [12] 0.438 | [13] 0.257 | [14] 0.061 | [15] -0.111 | [16] -0.615 | [17] 0.748 | [18] -0.053

MAP3K1 (UniProt Q13233)
inactive: [2] 0.163 | [3] -0.07 | [5] 0.204 | [6] -0.01 | [7] 0.032 | [9] -0.086 | [10] -0.042 | [11] 0.107 | [13] 0.076 | [15] -0.02 | [16] -0.02 | [17] 0.101

Quoted at random: 2 entries already listed.
MAML1 (UniProt Q92585)
inactive: [1] 0.161 | [2] 0.088 | [3] -0.005 | [4] 0.123 | [5] -0.031 | [6] -0.017 | [7] -0.138 | [8] -0.05 | [9] 0.023 | [10] -0.094 | [11] 0.015 | [12] 0.046 | [13] -0.109 | [14] 0 | [15] 0.015 | [16] -0.028 | [17] 0.031 | [18] 0.083

MAP4K3 (UniProt Q8IVH8)
inactive: [1] -0.114 | [4] 0.183 | [7] -0.041 | [8] -0.028 | [12] 0.401 | [14] -0.774 | [15] 0.002 | [17] 0.602

Continued:

MARCHF3 (UniProt Q86UD3)
inactive: [3] -0.164 | [5] 0.071 | [6] 0.013 | [9] 0.041

MAP3K4 isoform 2 (UniProt Q9Y6R4)
inactive: [2] 0.044 | [7] -0.007 | [15] 0.009 | [17] 0.112

LTO1 (UniProt Q8WV07)
inactive: [1] -0.191 | [2] 0.053 | [3] 0.052 | [4] 0.008 | [5] -0.06 | [6] 0.138 | [7] 0.014 | [8] -0.031 | [9] -0.021 | [10] 0.038 | [11] -0.099 | [12] 0.037 | [13] 0.194 | [14] -0.102 | [15] 0.066 | [16] 0.237 | [17] -0.023 | [18] -0.035

MAOA (UniProt P21397)
inactive: [4] 0.182 | [12] -1.15 | [14] 0.055

MARCHF7 (UniProt Q9H992)
inactive: [4] -0.216 | [12] -0.068 | [14] 0.055

LTBP1 isoform 4 (UniProt Q14766)
inactive: [1] -0.157 | [3] -0.091 | [4] -0.306 | [5] 0.106 | [6] -0.078 | [8] 0.02 | [9] 0.206 | [10] 0.144 | [11] -0.134 | [12] -0.089 | [13] 0.248 | [14] -0.005 | [16] -0.119 | [18] 0.056

MAPK15 (UniProt Q8TD08)
inactive: [2] -0.294 | [4] 0.129 | [7] 0.034 | [10] -0.138 | [11] 0.166 | [12] -0.07 | [13] 0.479 | [14] -0.03 | [15] -0.409 | [16] -0.076 | [17] -0.024 | [18] -0.163

LTBP4 isoform 2 (UniProt Q8N2S1)
inactive: [2] 0.195 | [7] 0.079 | [15] 0.047 | [17] 0

MACF1, A0A5F9ZGX0
inactive: [3] 0.044 | [5] -0.08 | [9] 0.063

MAPKAP1 (UniProt Q9BPZ7)
inactive: [2] 0.02 | [4] -0.192 | [6] 0.113 | [7] -0.029 | [10] 0.105 | [11] -0.118 | [12] -0.085 | [13] 0.083 | [14] -0.003 | [15] -0.087 | [16] -0.056 | [17] 0.042 | [18] -0.093
